Several values for one entry are separate records, joined by “and”; a condition that tells them apart may be missing. Identical values can stand only once. Counter-ions that a name gives are not always drawn.
Assay: Body weight, blood glucose and general condition of treated diabetic rats
Type: in vivo, rat
Conditions: last 2 weeks of 8 weeks diabetes; for Blood glucose, Mean: group mean of 10 diabetic rats; for Blood glucose: individual diabetic rats
Method: (§1) Methods: Diabetes was induced in mature (19 week old) male Sprague-Dawley by a single STZ injection (40-45 mg/kg i.p.). The diabetic state was monitored weekly using commercially available test strips for blood (tail vein) and urine glucose levels. Body weight was also monitored daily. The criteria for the diabetic state were: blood glucose>19.9 mM, glycosuria, and no evidence of body weight gain.
as §1, with “also be” for “also”

COc1ccc2c(c1OCc1ccccc1)C[C@@H](C(=O)O)N(C(=O)C(c1ccccc1)c1ccccc1)C2 [Compound 1 sodium salt, S-2-(diphenylacetyl)-5-benzyloxy-6-methoxy-1,2,3,4-tetrahydroisoquinoline-3-carboxylic acid]
Blood glucose, Mean (0.01048 mg/kg daily by gavage): 33.58 mM | Blood glucose, Mean (0.0349 mg/kg daily by gavage): 32.63 mM | Blood glucose, Mean (0.1048 mg/kg daily by gavage): 32.94 mM | Blood glucose, Mean (1.048 mg/kg daily by gavage): 35.57 mM | Blood glucose (0.01048 mg/kg daily by gavage, 0.01048 mg/kg): 26.7 mM and 34.2 mM and 37.6 mM and 39.8 mM and 38.4 mM and 33.2 mM and 27.9 mM and 32.4 mM and 28.4 mM and 37.2 mM | Blood glucose (0.0349 mg/kg daily by gavage, 0.0349 mg/kg): 34.6 mM (2×) and 30.3 mM (2×) and 37.8 mM and 30.4 mM and 39.6 mM and 27.8 mM and 32.2 mM and 28.7 mM | Blood glucose (0.1048 mg/kg daily by gavage, 0.1048 mg/kg): 30.3 mM and 31.0 mM and 27.5 mM and 27.6 mM and 32.0 mM and 32.8 mM and 34.2 mM and 31.8 mM and 30.0 mM and 52.2 mM | Blood glucose (1.048 mg/kg daily by gavage, 1.048 mg/kg): 26.2 mM and 55.6 mM and 32.4 mM and 49.6 mM and 27.8 mM and 28.2 mM and 38.6 mM and 36.2 mM and 33.0 mM and 28.1 mM

Source: US9095587B2, “Methods and compositions for improved nerve conduction velocity” (Spinifex Pharmaceuticals Pty Ltd, priority 2010, dated 2015)
